US20210206744A1, “BENZIMIDAZOLE COMPOUNDS AS AGRICULTURAL CHEMICALS” (REDAG CROP PROTECTION LTD, priority 2017, published 2021)
Some entries share one result that the patent states for a list of compounds.

Assays:
Pythium ultimum = assay: Amended agar assay; format: cell-based; conditions: at 2 ppm
Method: Amended Agar Assay Testing was carried out on potato dextrose agar (PDA) amended with each compound at a test concentration of 2 ppm. Amended agar was poured into three replicate 9 cm petri dishes. Each replicate dish was inoculated in the centre with a 5 mm agar plug taken from the leading edge of a culture aged between 2 and 7 days old; the age of the culture was dependent on the growth rate of the pathogen being tested. The test pathogen was Pythium ultimum. Plates were incubated at 18° C. and the diameter of each colony measured before growth on the fastest growing plate reached the plate edge. This varied between 2 and 7 days depending on the growth rate of test pathogens. The % reduction in colony growth compared to the control plate was calculated. The results are provided in Table 1, in which D represents no control detected at this concentration; C represents up to 50% control; B from 50 to 99% control; and A represents a control of greater than 99%, i.e. no detectable colony growth.

Phytophthora cactorum = assay: 96 well plate test; format: cell-based; conditions: at 2 ppm
Method: Compounds were screened in 96 well plates with 10 compounds per plate. Each compound was screened using agar amended to 2, 0.2, 0.02 and 0.002 ppm, with proline at 50 and 10 ppm and 0.2% DMSO used as controls. Each test concentration and standard was replicated twice on a plate. Compounds were screened against Phytophthora cactorum. The agar used in the test is a 1% potato dextrose agar. 1000 spores/mL agar were added to the appropriate agar.
A ×10 stock solution in 2% DMSO was produced for each dose i.e. 20, 2, 0.2 and 0.02 ppm, and 10 μl of this added to the appropriate wells on the plate. An equivalent amount of 2% DMSO and proline stock at 500 and 100 ppm were added for the controls. To each well 90 μl of the appropriate agar spore suspension was added to give the required final well concentrations. Plates were incubated at room temperature (18° C.) and assessed after 2 to 3 days. The amount of pathogen growth in each well was compared to the DMSO controls and an EC50 concentration was calculated. The results are provided in Table 1 in which G represents no control detected at 2 ppm, F represents an EC50 of ≥2 ppm, and E represents an EC50 of less than 2 ppm.

SMILES	control over the pathogen (Pythium ultimum), summary in words (Pythium ultimum)	control over the pathogen (Phytophthora cactorum), summary in words (Phytophthora cactorum)
Cn1nnnc1-n1c(OCc2cccc(NC(=O)C3CC3)n2)nc2c(Cl)cccc21 [Compound 1, N-(6-(((4-Chloro-1-(1-methyl-1H-tetrazol-5-yl)-1H-benzo[d]imidazol-2-yl)oxy)methyl)pyridin-2-yl)cyclopropanecarboxamide]	good to excellent control	good to excellent control
Cn1nnnc1-n1c(OCc2cccc(NC(=O)COc3ccccc3)n2)nc2c(Cl)cccc21 [Compound 2]	good to excellent control	good to excellent control
Cn1nnnc1-n1c(OCc2cccc(NC(=O)OC(C)(C)C)n2)nc2c(Cl)cccc21 [Compound 3]	good to excellent control	good to excellent control
COc1cc(F)cc2c1nc(OCc1cccc(NC(=O)OC(C)(C)C)n1)n2-c1nnnn1C [Compound 4]	good to excellent control	good to excellent control
COc1cc(F)cc2c1nc(OCc1cccc(NC(=O)COc3ccccc3)n1)n2-c1nnnn1C [Compound 5]	good to excellent control	good to excellent control
C=CCOc1cccc2c1nc(OCc1cccc(NC(=O)OC(C)(C)C)n1)n2-c1nnnn1C [Compound 7, tert-butyl (6-(((4-(allyloxy)-1-(1-methyl-1H-tetrazol-5-yl)-1H-benzo[d]imidazol-2-yl)oxy)methyl)pyridin-2-yl)carbamate]	good to excellent control	good to excellent control
COc1cccc2c1nc(OCc1cccc(NC(=O)OC(C)(C)C)n1)n2-c1nnnn1C [Compound 8]	good to excellent control	good to excellent control
CC(C)CCC(=O)Nc1cccc(COc2nc3c(Cl)cccc3n2-c2nnnn2C)n1 [Compound 9]	good to excellent control	good to excellent control
Cn1nnnc1-n1c(OCc2cccc(NC(=O)C3CCCC3)n2)nc2c(Cl)cccc21 [Compound 10]	good to excellent control	good to excellent control
C=CCOC(=O)Nc1cccc(COc2nc3c(Cl)cccc3n2-c2nnnn2C)n1 [Compound 11]	good to excellent control	good to excellent control
CCCC(=O)Nc1cccc(COc2nc3c(Cl)cccc3n2-c2nnnn2C)n1 [Compound 12]	good to excellent control	good to excellent control
CCCCOC(=O)Nc1cccc(COc2nc3c(Cl)cccc3n2-c2nnnn2C)n1 [Compound 13]	good to excellent control	good to excellent control
CC(C)COC(=O)Nc1cccc(COc2nc3c(Cl)cccc3n2-c2nnnn2C)n1 [Compound 15]	good to excellent control	good to excellent control
CCCOC(=O)Nc1cccc(COc2nc3c(Cl)cccc3n2-c2nnnn2C)n1 [Compound 16]	good to excellent control	good to excellent control
Cn1nnnc1-n1c(OCc2cccc(NC(=O)OC3CCCC3)n2)nc2c(Cl)cccc21 [Compound 17]	good to excellent control	good to excellent control
Cn1nnnc1-n1c(OCc2cccc(NC(=O)C(C)(C)C)n2)nc2c(Cl)cccc21 [Compound 19]	good to excellent control	good to excellent control
Cc1cccc2c1nc(OCc1cccc(NC(=O)COc3ccccc3)n1)n2-c1nnnn1C [Compound 20]	good to excellent control	good to excellent control
Cc1cccc2c1nc(OCc1cccc(NC(=O)OC(C)(C)C)n1)n2-c1nnnn1C [Compound 21]	good to excellent control	good to excellent control
CC(C)C(=O)Nc1cccc(COc2nc3c(Cl)cccc3n2-c2nnnn2C)n1 [Compound 24]	good to excellent control	good to excellent control
CCCCC(=O)Nc1cccc(COc2nc3c(Cl)cccc3n2-c2nnnn2C)n1 [Compound 25]	good to excellent control	good to excellent control
CC(C)CC(=O)Nc1cccc(COc2nc3c(Cl)cccc3n2-c2nnnn2C)n1 [Compound 26]	good to excellent control	good to excellent control
CCC(CC)C(=O)Nc1cccc(COc2nc3c(Cl)cccc3n2-c2nnnn2C)n1 [Compound 27]	good to excellent control	good to excellent control
Cn1nnnc1-n1c(OCc2cccc(NC(=O)C(F)(F)F)n2)nc2c(Cl)cccc21 [Compound 29]	good to excellent control	good to excellent control
Cn1nnnc1-n1c(OCc2cccc(NC(=O)CC(F)(F)F)n2)nc2c(Cl)cccc21 [Compound 30]	good to excellent control	good to excellent control
Cn1nnnc1-n1c(OCc2cccc(NC(=O)c3ccccc3)n2)nc2c(Cl)cccc21 [Compound 31]	good to excellent control	good to excellent control
Cn1nnnc1-n1c(OCc2cccc(NC(=O)C3CCC3)n2)nc2c(Cl)cccc21 [Compound 32]	good to excellent control	good to excellent control
Cn1nnnc1-n1c(OCc2cccc(NC(=O)CC(C)(C)C)n2)nc2c(Cl)cccc21 [Compound 33]	good to excellent control	good to excellent control
Cn1nnnc1-n1c(OCc2cccc(NC(=O)OC(C)(C)C)n2)nc2c(Br)cccc21 [Compound 34, tert-Butyl (6-(((4-bromo-1-(1-methyl-1H-tetrazol-5-yl)-1H-benzo[d]imidazol-2-yl)oxy)methyl)pyridin-2-yl)carbamate]	good to excellent control	good to excellent control
